Assay results: article doi:10.1101/2023.05.02.539095 (bioRxiv, 2023)

Target: T1, C-terminally His-tagged MSMEG_0317 expressed from an integrative plasmid in M. smegmatis (M. smegmatis) (UniProt A0QP93)
T1 sequence: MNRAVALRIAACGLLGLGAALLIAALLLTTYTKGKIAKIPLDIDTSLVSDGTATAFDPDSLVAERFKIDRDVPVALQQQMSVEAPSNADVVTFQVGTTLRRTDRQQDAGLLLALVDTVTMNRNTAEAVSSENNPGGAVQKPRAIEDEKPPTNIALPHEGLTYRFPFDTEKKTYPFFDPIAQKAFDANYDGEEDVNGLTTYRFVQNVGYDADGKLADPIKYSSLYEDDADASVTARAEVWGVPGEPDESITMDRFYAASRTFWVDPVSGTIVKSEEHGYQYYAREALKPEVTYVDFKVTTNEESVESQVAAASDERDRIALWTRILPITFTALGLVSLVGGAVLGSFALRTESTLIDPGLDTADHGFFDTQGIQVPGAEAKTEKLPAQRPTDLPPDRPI
Assay: affinity purification with mass spectrometry

| Substance | binding |
| --- | --- |
| Mycobacterial membrane protein Large 3 (MmpL3) (from UniProt A0QP27 1-1013) | no binding |
| TmaT (putative acetyltransferase) | no binding |

Results are given in words; binding and its absence hold for the method and conditions named. Binding seen in cells or lysates may run through a third protein. A yes stands for co-enrichment or nearness to the bait. Other partners may have been found. No binding means not detected with the bait. Tags and fused reporters may be left off the sequences shown.
